Source: article PMC7480108
These are yes or no findings as the source states them, for the method shown. In cells and extracts the contact can be indirect. A yes stands for co-enrichment or nearness to the bait. Other partners may have been found.

Target: TKS5^GFP (human)
Experiment: affinity purification with mass spectrometry; GFP-Trap (anti-GFP nanobody magnetic agarose beads) from NP-40 lysates of MDA-MB-231 cells stably expressing TKS5^GFP, plated 90 min on type I collagen; cells without TKS5^GFP as negative control; biological triplicate; on-bead digestion, LC-MS/MS

Row | binding | Binder
1 | binds | endogenous FGD1 (faciogenital dysplasia protein 1) (protein, UniProt P98174 1-961) MHGHRAPGGAGPSEPEHPATNPPGAAPPACADSDPGASEPGLLARRGSGSALGGPLDPQFVGPSDTSLGAAPGHRVLPCGPSPQHHRALRFSYHLEGSQPRPGLHQGNRILVKSLSLDPGQSLEPHPEGPQRLRSDPGPPTETPSQRPSPLKRAPGPKPQVPPKPSYLQMPRMPPPLEPIPPPPSRPLPADPRVAKGLAPRAEASPSSAAVSSLIEKFEREPVIVASDRPVPGPSPGPPEPVMLPQPTSQPPVPQLPEGEASRCLFLLAPGPRDGEKVPNRDSGIDSISSPSNSEETCFVSDDGPPSHSLCPGPPALASVPVALADPHRPGSQEVDSDLEEEDDEEEEEEKDREIPVPLMERQESVELTVQQKVFHIANELLQTEKAYVSRLHLLDQVFCARLLEEARNRSSFPADVVHGIFSNICSIYCFHQQFLLPELEKRMEEWDRYPRIGDILQKLAPFLKMYGEYVKNFDRAVELVNTWTERSTQFKVIIHEVQKEEACGNLTLQHHMLEPVQRIPRYELLLKDYLLKLPHGSPDSKDAQKSLELIATAAEHSNAAIRKMERMHKLLKVYELLGGEEDIVSPTKELIKEGHILKLSAKNGTTQDRYLILFNDRLLYCVPRLRLLGQKFSVRARIDVDGMELKESSNLNLPRTFLVSGKQRSLELQARTEEEKKDWVQAINSTLLKHEQTLETFKLLNSTNREDEDTPPNSPNVDLGKRAPTPIREKEVTMCMRCQEPFNSITKRRHHCKACGHVVCGKCSEFRARLVYDNNRSNRVCTDCYVALHGVPGSSPACSQHTPQRRRSILEKQASVAAENSVICSFLHYMEKGGKGWHKAWFVVPENEPLVLYIYGAPQDVKAQRSLPLIGFEVGPPEAGERPDRRHVFKITQSHLSWYFSPETEELQRRWMAVLGRAGRGDTFCPGPTLSEDREMEEAPVAALGATAEPPESPQTRDKT
2 | binds | monocarboxylate transporter 4 (protein, UniProt O15427 1-465) MGGAVVDEGPTGVKAPDGGWGWAVLFGCFVITGFSYAFPKAVSVFFKELIQEFGIGYSDTAWISSILLAMLYGTGPLCSVCVNRFGCRPVMLVGGLFASLGMVAASFCRSIIQVYLTTGVITGLGLALNFQPSLIMLNRYFSKRRPMANGLAAAGSPVFLCALSPLGQLLQDRYGWRGGFLILGGLLLNCCVCAALMRPLVVTAQPGSGPPRPSRRLLDLSVFRDRGFVLYAVAASVMVLGLFVPPVFVVSYAKDLGVPDTKAAFLLTILGFIDIFARPAAGFVAGLGKVRPYSVYLFSFSMFFNGLADLAGSTAGDYGGLVVFCIFFGISYGMVGALQFEVLMAIVGTHKFSSAIGLVLLMEAVAVLVGPPSGGKLLDATHVYMYVFILAGAEVLTSSLILLLGNFFCIRKKPKEPQPEVAAAEEEKLHKPPADSGVDLREVEHFLKAEPEKNGEVVHTPETSV
